# Measured values taken from PubChem BioAssay AID2417 (National Center for Advancing Translational Sciences (NCATS), 2010).
# Screen size: about 140,000 compounds; about 4,300 (3.1%) were called active. This list was built around the results that the source calls inconclusive (neither active nor inactive); the mix of calls is not that of the screen.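 Rule for the calls: active = readout at or below -70, meaning at least 70% loss of cells showing the perinucleolar compartment, a nuclear body marking cancer cells; inconclusive = readout between -30 and a set limit; inactive = the rest.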
# Experiment: High Content Assay for Compounds that inhibit the Assembly of the Perinucleolar Compartment;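 note: plate controls were DMSO wells for no effect and camptothecin positive control wells for full effect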
# Conditions: PC3M PTB-GFP, PNC prevalence imaging, 16 h; at 10 µM; active compounds read low
# Method in brief: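 PC3M cells stably expressing PTB-GFP, 750–1000 cells/well, treated 16 h at 37 °C with compound (23 nl of library stock), in duplicate. After paraformaldehyde fixation and Hoechst stain, imaged at 20x; PNC prevalence scored by image analysis.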
row,SMILES,"activity change (PNC), negative = inhibition"
1,O=C(O)CCCNS(=O)(=O)c1ccc(Br)s1,inconclusive: -30.6%
2,CCOCCCNS(=O)(=O)c1ccc(OC)c(Cl)c1Cl,inactive: 19.6%
3,O=C(NC12CC3CC(CC(C3)C1)C2)c1cncc(O)c1,inconclusive: -53.7%
4,CN(C)S(=O)(=O)c1cccc(NC(=O)COC(=O)CCc2nc3ccccc3s2)c1,inconclusive: -44.3%
5,CC(=O)Nn1cc2c(=O)n(C)c(=O)n(C)c2c1,inconclusive: -45.9%
6,N#CC1=C(N2CCCCC2)c2cc3c(n2C1=O)CCCC3,inactive: 0.496%
7,O=c1[nH]c(-c2cccnc2)nc2ccccc12,inconclusive: -39.6%
8,COC(=O)CCNS(=O)(=O)c1ccc2ccccc2c1,inconclusive: -55.3%
9,COc1cccc(N2CCN(C(=O)NC3CCCCC3)CC2)c1,inconclusive: -64.3%
10,O=C(CN1CCc2ccccc2C1)c1cccs1,inconclusive: -67.1%
11,CCNC(=O)CSc1ncnc2sccc12,inactive: 8.81%
12,CCOC(=O)c1[nH]c2ccc(F)cc2c1NC(=O)CCN1CCSCC1,inconclusive: -44.2%
13,Cc1ccc(C=C2C(=O)c3ccccc3C2=O)o1,inactive: -22.7%
14,Cc1cc(C)cc(OCC(=O)Nc2ccc(N3CCN(S(C)(=O)=O)CC3)cc2)c1,inconclusive: -40.4%
15,O=C(NCc1ccco1)c1cc(-c2cccc(Cl)c2)on1,inconclusive: -62.7%
16,O=C(OCc1c(Cl)cccc1Cl)c1cccnc1,inactive: 34.9%
17,COC(=O)CSc1nnc(CNC(=O)c2cc(OC)c(OC)c(OC)c2)n1C,inconclusive: -32.7%
18,CCc1c(-c2n[nH]c(=S)n2Cc2ccccc2)csc1C,inconclusive: -60.5%
19,O=Cc1cn(-c2ccccc2)nc1-c1ccc2c(c1)OCCO2,inconclusive: -39.4%
20,C=C(C)COc1ccc(-c2[nH]ncc2Oc2cccc(OC)c2)c(O)c1,inactive: 29.8%
21,O=C(CSc1ncccn1)NN=C1CCCCCC1,inactive: 29.2%
22,O=C(/C=C\NCC(=O)c1ccccc1)c1ccc2ccccc2c1,inconclusive: -31.7%
23,Cc1cc(C(c2ccc(C)o2)c2ccc(C)o2)c(O)c([N+](=O)[O-])c1,inactive: 23%
24,CCN1CCN(c2nc3ccccc3nc2C(C#N)S(=O)(=O)c2ccc(C)cc2)CC1 (stereo not drawn),inactive: 9.32%

row,SMILES,"activity change (PNC), negative = inhibition"
1,C/C=C/c1ccc(OCCCCOc2ccccc2F)c(OC)c1,active: -125%
2,COc1ccc(S(=O)(=O)Nc2ccc(S(=O)(=O)N3CCCC3)cc2)cc1,inactive: 39%
3,Cc1ccc(NC(=S)NNC(=O)c2ccccc2OC(F)F)cc1,inconclusive: -50.8%
4,Cc1ccc(-c2nc3ccccc3c(=O)n2Cc2ccccc2)cc1,inconclusive: -48.8%
5,Cc1ccc(-c2nnc(N3CCN(C(=O)CN4CCOCC4)CC3)c3ccccc23)cc1,inconclusive: -51.6%
6,Cc1nc(NC(=O)c2ccc(F)cc2)sc1C(=O)Nc1ccc2c(c1)CCC2,inconclusive: -40.2%
7,CCOc1ccc(OCC)c(-c2c(=O)n(OCc3ccccc3Br)c3ccccc3[n+]2[O-])c1,inactive: -9.9%
8,O=C(CSc1nnc(-c2cccs2)n1Cc1ccco1)c1ccc2c(c1)OCO2,inconclusive: -38%
9,N/C(=N\OC(=O)COc1ccc(Cl)cc1)c1cccnc1,inconclusive: -77.6%
10,Cc1ccn2c(NC3CCCCC3)c(C)nc2c1,inconclusive: -56.6%
11,CN(C)c1ccc(CN(C(=O)C2COc3ccccc3O2)C2CCS(=O)(=O)C2)cc1 (stereo not drawn),inactive: 11.1%
12,Cc1ccc(NC(=O)CC2S/C(=N/N=C/C=C/c3ccccc3)NC2=O)cc1Cl (stereo not drawn),inconclusive: -58.2%
13,Cc1[nH]nc(N2CCCCCC2)c1[N+](=O)[O-],inactive: 27%
14,O=C(Cc1ccccc1)NC(=S)Nc1ccc2oc(-c3ccccc3)nc2c1,inconclusive: -51.5%
15,CNC(=O)c1ccsc1NC(=O)c1ccc(S(=O)(=O)N2CCCc3ccccc32)cc1,inactive: 29.4%
16,CC(C)N1C(=O)c2ccc(C(=O)O)cc2C1=O,inconclusive: -41.6%
17,COC(=O)c1ccc(Sc2ccccc2NS(=O)(=O)c2ccc(NC(C)=O)cc2)nc1,inconclusive: -79.8%
18,COc1cccc(-c2nc(CS(=O)(=O)CC(=O)N3CCN(c4ccccn4)CC3)c(C)o2)c1,inconclusive: -33.6%
19,O=C(O)c1cccc(NC(=O)C2CCCO2)c1 (stereo not drawn),inconclusive: -66.2%
20,O=S(=O)(c1ccc(C2=CSC3=NCCN23)cc1)N1CCOCC1,inactive: -8.41%
21,CN1CCN(c2nc(C#N)cc(-c3ccccc3)n2)CC1,inconclusive: -51.5%
22,CS(=O)(=O)NCCCNc1c(Cl)cccc1[N+](=O)[O-],inconclusive: -36.9%
23,Cc1noc(C)c1COc1cccc(C(=O)Oc2ccc3c(c2)OCO3)c1,inactive: -17%
24,COC(=O)C1=C(C)N(c2ccccc2)/C(=C/c2cccs2)C1=O,inconclusive: -37.3%

# Part of the list above in order of SMILES length, smallest number first.
row,SMILES,"activity change (PNC), negative = inhibition"
7,O=c1[nH]c(-c2cccnc2)nc2ccccc12,inconclusive: -39.6%
20,C=C(C)COc1ccc(-c2[nH]ncc2Oc2cccc(OC)c2)c(O)c1,inactive: 29.8%
17,COC(=O)CSc1nnc(CNC(=O)c2cc(OC)c(OC)c(OC)c2)n1C,inconclusive: -32.7%

# Later entries:

row,SMILES,"activity change (PNC), negative = inhibition"
1,COc1ccccc1S(=O)(=O)Cc1ccc(C(=O)NC2CCCCC2)o1,inconclusive: -38.7%
2,O=C(O)/C=C\C(=O)Nc1ccccc1C#Cc1ccc(Br)cc1,inconclusive: -43.8%
3,O=C1CN(C(=O)COC(=O)C2=COCCO2)c2ccccc2N1,inconclusive: -66.8%
4,CCCc1cc(=O)oc2c(CN3CCCC3)c(O)c(Cl)cc12,inconclusive: -59.1%
5,OCCCN1CCN(CCOc2ccccc2-c2ccccc2)CC1,inconclusive: -43%
6,O=C(NN1C(=O)C2C3C=CC(C4CC34)C2C1=O)c1cccc(Cl)c1 (stereo not drawn),inconclusive: -34.9%
7,COC(=O)Cc1ccc(NC(=S)N2CCN(c3cccc(O)c3)CC2)cc1,inconclusive: -44%
8,Cc1ccc(/C=N/NC(=O)Cn2nccc2C)o1,inconclusive: -49.7%
9,COc1ccccc1CNC(=O)c1cccs1,inactive: -5.66%
10,COc1ccc(-n2cc(-c3ccccc3)c3c(N4CCN(CCO)CC4)ncnc32)cc1,inconclusive: -30.7%
11,CCCN(c1nc(C)cc(OC)n1)S(=O)(=O)c1ccccc1,inconclusive: -36.2%
12,CC(=O)/C(=N\Nc1ccc(Cl)cc1Cl)Sc1nnc(-c2ccccc2)n1-c1ccccc1,inconclusive: -30.3%
13,COCCCNC(=O)CCCOc1ccccc1,inconclusive: -69.1%
14,N#CCSc1nnc(-c2ccccc2)c(-c2ccccc2)n1,inconclusive: -66.6%
15,COC(=O)CC/C(C)=N\Nc1ccc([N+](=O)[O-])cc1[N+](=O)[O-],inconclusive: -33.9%
16,O=C(COC(=O)C1CC2C=CC1C2)NCc1ccccc1Cl (stereo not drawn),inactive: -12.1%
17,CCCCCCCCC(=O)Nc1cc(C)ccc1OC,active: -100%
18,O=C(N/N=C/c1ccc(Cl)cc1)c1cc2c(s1)-c1ccccc1CC2,inconclusive: -32.7%
19,COC(=O)c1cc(Cl)c(NC(=O)/C=C/c2ccc(OC)cc2)cc1OC,active: -113%
20,Cc1ccc(S(=O)(=O)Nc2ccc3oc(=O)sc3c2)c(C)c1,inconclusive: -59.9%
21,O=C(c1ccc2c(c1)OCCO2)N1CCCCC1,inactive: 29.8%
22,CNC(=O)COc1ncnc2sccc12,inconclusive: -42.8%
23,O=C(c1cc(-c2ccco2)nn1-c1cccc(Cl)c1)N1CCCCC1,inconclusive: -33.8%
24,O=S(=O)(c1cccc(S(=O)(=O)N2CCCC2)c1)c1cccc(S(=O)(=O)N2CCCC2)c1,inconclusive: -41.6%

row,SMILES,"activity change (PNC), negative = inhibition"
1,Cc1cc(C)cc(C(=O)OCC(=O)Nc2cccc(S(=O)(=O)NC3=NCCCCC3)c2)c1,active: -96%
2,CCCCOC(=O)Nc1cccc(Cl)c1C,inactive: 16.8%
3,O=C(NNC(=O)c1cc(-c2ccccc2)nc2ccccc12)Nc1cccc(Cl)c1,inconclusive: -34.6%
4,CN(C)/C=N/c1c(C#N)nnn1Cc1ccccc1,inconclusive: -52.4%
5,O=C(CCc1c[nH]c2ccccc12)NCc1ccc2c(c1)OCO2,inconclusive: -54%
6,COc1ccc(NC(=O)c2oc3ccc(S(=O)(=O)N4CCC5(CC4)OCCO5)cc3c2C)cc1,inconclusive: -60.3%
7,Cc1ccc(OCC(=O)N2CCCCC2)c(Br)c1,inactive: 44.7%
8,O=C1C(=O)N(CCN2CCCCC2)c2ccccc21,inconclusive: -48.5%
9,O=S(=O)(NC1CC1)c1ccc(S(=O)(=O)N2CCCC(c3nc(-c4cccnc4)no3)C2)cc1 (stereo not drawn),inconclusive: -48.6%
10,CC1(C)CC(=O)c2cnc(N3CCc4ccccc4C3)nc2C1,inactive: 8.44%
11,COc1ccc(Oc2c(C)oc3cc(OC(=O)N4CCOCC4)ccc3c2=O)cc1,inconclusive: -51.4%
12,CCN(CC)C(=O)n1cnc(-c2ccccc2)c1-c1ccccc1,inactive: 10.2%
13,COC(=O)c1ccc2nc(C(F)(F)F)[nH]c2c1,inconclusive: -30.2%
14,Cc1ccc(N=C2NC(=O)/C(=C/c3cn(C)c4ccccc34)S2)cc1C,inactive: 25.3%
15,C/C(Cc1ccccc1)=N\NC(=O)CCCCCC(=O)N/N=C(\C)Cc1ccccc1,inactive: 90.1%
16,CCn1c(SCC(=O)Nc2sc3c(c2C#N)CCC(C(C)(C)C)C3)nnc1-c1ccco1 (stereo not drawn),inactive: 23.8%
17,COc1cc(CN2CCSCC2)cc(OC)c1OC,inactive: -8.62%
18,Cc1c(C(=O)Nc2cccc(-c3nnc4n3CCCCC4)c2)oc2ccccc12,inconclusive: -46.9%
19,CN(c1ccccc1)c1nc2ccsc2c(=O)s1,inactive: 17.8%
20,Cc1ccc(NNC(=O)C(=O)N2CCCCC2)cc1,active: -89.9%
21,O=C(CSc1nccc(=O)[nH]1)N1CCCc2ccccc21,inconclusive: -45%

# As a short view, part of the list above:
row,SMILES,"activity change (PNC), negative = inhibition"
10,COc1ccc(-n2cc(-c3ccccc3)c3c(N4CCN(CCO)CC4)ncnc32)cc1,inconclusive: -30.7%
11,CCCN(c1nc(C)cc(OC)n1)S(=O)(=O)c1ccccc1,inconclusive: -36.2%
12,CC(=O)/C(=N\Nc1ccc(Cl)cc1Cl)Sc1nnc(-c2ccccc2)n1-c1ccccc1,inconclusive: -30.3%
